# Test results reported in the supplement of paper PMC6411743.
# Amino acid sequences for entries named in this document (tags omitted). A change or cut given only in a name is not applied to a line headed by its entry.
# UniProt Q8IXZ2: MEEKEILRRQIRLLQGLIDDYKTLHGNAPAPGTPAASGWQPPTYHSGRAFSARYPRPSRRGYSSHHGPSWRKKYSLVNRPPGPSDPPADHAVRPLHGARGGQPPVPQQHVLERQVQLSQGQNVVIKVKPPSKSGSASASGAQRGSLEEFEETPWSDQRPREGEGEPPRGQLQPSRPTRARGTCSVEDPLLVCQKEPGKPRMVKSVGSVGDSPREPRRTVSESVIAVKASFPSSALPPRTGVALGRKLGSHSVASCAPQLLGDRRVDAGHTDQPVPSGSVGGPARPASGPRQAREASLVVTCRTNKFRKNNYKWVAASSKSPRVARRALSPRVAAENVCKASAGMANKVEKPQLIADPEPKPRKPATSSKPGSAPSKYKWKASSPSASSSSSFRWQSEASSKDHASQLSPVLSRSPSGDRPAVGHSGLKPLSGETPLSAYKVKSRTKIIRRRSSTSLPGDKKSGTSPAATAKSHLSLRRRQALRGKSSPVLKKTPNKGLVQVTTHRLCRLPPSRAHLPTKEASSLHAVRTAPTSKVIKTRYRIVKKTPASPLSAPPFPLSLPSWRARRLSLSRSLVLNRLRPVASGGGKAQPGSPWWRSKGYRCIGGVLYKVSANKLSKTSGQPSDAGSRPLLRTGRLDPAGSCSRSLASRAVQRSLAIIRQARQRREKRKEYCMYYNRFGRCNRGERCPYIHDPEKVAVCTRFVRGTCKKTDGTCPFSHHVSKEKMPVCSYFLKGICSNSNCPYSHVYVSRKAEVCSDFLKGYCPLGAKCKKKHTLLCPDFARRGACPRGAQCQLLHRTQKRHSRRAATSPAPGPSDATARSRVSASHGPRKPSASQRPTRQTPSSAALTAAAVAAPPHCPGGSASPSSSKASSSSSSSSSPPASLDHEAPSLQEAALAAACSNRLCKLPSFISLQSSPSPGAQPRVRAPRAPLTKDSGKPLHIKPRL
# UniProt Q86SX6: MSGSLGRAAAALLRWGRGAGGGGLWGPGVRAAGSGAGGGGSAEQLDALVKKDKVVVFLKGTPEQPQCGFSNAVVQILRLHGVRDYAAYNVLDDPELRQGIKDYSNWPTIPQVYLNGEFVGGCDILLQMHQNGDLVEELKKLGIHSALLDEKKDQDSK
# UniProt Q8N5F7: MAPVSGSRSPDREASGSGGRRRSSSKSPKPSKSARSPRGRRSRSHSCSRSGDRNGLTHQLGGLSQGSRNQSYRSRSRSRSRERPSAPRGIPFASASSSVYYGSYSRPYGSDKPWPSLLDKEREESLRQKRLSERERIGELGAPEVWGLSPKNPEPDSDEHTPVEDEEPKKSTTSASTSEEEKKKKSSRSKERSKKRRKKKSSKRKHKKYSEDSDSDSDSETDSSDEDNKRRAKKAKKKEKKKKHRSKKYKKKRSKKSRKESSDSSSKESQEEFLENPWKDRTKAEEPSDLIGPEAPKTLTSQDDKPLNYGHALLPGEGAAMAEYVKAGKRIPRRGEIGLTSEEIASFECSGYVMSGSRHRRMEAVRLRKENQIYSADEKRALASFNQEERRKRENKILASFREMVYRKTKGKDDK
# UniProt Q8IXJ6: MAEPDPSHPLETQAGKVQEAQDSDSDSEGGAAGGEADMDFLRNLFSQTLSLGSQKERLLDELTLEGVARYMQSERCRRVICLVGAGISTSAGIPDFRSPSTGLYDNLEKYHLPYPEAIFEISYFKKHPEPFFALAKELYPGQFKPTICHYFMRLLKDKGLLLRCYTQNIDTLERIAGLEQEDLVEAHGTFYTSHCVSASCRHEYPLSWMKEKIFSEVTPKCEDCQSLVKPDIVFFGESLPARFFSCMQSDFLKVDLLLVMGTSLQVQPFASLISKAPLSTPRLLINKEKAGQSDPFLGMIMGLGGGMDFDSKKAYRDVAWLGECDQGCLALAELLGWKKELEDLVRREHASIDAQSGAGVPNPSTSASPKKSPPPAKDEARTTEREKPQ
# UniProt Q8N9N5: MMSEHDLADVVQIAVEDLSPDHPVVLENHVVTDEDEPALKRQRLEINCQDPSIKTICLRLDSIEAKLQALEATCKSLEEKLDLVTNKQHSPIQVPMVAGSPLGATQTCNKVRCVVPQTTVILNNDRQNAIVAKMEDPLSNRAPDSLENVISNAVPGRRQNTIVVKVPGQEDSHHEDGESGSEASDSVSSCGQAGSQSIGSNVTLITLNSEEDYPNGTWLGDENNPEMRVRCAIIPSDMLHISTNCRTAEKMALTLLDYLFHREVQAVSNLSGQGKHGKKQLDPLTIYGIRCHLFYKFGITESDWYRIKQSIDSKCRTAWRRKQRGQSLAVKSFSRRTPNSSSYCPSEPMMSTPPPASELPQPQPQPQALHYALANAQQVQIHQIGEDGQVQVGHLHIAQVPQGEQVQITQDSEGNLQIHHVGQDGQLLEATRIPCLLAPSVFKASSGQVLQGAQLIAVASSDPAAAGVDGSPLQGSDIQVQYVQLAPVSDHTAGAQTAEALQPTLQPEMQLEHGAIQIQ
# UniProt Q8N3F8: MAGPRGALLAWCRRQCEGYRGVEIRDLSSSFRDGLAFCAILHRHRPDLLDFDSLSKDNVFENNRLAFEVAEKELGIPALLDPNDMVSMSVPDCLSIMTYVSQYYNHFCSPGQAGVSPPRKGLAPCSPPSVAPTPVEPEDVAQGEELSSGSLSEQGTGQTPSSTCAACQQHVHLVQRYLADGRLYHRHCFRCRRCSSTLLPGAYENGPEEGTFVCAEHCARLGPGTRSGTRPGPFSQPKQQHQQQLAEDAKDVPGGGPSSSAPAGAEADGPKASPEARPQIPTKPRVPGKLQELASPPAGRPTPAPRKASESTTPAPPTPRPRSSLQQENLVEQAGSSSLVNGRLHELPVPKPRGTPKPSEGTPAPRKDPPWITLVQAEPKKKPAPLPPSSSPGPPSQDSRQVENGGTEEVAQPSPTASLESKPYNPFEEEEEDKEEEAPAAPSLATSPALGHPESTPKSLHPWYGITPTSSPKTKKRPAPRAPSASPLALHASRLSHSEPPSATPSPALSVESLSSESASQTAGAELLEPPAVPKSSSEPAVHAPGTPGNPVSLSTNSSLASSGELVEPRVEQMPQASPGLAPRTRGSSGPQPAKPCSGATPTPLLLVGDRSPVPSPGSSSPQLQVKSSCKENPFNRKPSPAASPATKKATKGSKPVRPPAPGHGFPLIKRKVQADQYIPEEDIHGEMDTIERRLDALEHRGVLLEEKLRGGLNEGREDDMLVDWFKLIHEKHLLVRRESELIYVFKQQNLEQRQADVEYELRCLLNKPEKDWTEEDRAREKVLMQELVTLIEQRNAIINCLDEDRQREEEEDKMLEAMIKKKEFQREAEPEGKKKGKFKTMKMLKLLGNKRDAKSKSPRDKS
# UniProt Q8IYI6: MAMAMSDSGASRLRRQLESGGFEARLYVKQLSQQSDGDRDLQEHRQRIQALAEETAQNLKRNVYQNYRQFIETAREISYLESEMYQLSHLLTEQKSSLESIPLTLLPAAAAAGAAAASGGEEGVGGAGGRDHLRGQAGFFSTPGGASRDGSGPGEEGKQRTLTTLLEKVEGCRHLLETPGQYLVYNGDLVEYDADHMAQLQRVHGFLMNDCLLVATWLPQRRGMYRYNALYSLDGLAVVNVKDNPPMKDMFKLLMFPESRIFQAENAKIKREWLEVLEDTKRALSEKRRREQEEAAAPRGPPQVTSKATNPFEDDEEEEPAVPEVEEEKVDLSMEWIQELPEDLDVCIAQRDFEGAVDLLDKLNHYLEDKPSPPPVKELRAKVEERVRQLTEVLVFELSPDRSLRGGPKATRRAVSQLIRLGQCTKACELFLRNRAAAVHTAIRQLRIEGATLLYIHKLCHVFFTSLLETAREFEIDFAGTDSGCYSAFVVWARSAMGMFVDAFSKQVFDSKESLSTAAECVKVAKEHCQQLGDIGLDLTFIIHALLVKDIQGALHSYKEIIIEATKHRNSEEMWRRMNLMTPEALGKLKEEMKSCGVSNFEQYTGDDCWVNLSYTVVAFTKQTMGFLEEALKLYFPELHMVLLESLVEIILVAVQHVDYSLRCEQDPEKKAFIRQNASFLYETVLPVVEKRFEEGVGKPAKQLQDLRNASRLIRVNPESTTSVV
# UniProt Q86SE9: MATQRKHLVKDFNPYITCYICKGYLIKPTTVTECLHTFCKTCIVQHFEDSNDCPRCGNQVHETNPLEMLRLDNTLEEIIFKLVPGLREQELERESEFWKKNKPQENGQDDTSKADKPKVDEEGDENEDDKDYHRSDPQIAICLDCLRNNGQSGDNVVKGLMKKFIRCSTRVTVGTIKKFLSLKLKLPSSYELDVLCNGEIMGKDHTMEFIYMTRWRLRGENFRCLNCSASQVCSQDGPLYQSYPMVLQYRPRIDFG
# UniProt Q86UE8, whole entry, looked up: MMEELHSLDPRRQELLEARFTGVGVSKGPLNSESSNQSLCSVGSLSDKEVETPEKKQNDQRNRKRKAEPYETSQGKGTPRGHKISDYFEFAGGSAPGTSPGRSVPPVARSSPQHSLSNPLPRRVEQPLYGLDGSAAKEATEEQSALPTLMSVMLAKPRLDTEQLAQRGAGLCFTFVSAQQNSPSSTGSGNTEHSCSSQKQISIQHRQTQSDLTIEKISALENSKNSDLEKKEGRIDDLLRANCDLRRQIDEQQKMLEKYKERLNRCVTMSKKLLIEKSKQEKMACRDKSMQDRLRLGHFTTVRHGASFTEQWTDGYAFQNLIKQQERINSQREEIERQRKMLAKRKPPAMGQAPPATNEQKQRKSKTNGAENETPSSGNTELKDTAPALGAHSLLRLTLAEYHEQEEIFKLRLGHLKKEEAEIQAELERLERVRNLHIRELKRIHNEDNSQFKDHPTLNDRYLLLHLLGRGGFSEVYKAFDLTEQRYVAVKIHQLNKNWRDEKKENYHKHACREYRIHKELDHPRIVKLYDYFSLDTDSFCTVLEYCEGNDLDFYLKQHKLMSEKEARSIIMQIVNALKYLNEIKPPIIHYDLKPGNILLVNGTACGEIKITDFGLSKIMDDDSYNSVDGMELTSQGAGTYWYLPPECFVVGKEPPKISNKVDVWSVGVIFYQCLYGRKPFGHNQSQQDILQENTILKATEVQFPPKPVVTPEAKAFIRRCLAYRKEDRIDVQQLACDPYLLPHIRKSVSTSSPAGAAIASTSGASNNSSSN
# UniProt Q86XP3: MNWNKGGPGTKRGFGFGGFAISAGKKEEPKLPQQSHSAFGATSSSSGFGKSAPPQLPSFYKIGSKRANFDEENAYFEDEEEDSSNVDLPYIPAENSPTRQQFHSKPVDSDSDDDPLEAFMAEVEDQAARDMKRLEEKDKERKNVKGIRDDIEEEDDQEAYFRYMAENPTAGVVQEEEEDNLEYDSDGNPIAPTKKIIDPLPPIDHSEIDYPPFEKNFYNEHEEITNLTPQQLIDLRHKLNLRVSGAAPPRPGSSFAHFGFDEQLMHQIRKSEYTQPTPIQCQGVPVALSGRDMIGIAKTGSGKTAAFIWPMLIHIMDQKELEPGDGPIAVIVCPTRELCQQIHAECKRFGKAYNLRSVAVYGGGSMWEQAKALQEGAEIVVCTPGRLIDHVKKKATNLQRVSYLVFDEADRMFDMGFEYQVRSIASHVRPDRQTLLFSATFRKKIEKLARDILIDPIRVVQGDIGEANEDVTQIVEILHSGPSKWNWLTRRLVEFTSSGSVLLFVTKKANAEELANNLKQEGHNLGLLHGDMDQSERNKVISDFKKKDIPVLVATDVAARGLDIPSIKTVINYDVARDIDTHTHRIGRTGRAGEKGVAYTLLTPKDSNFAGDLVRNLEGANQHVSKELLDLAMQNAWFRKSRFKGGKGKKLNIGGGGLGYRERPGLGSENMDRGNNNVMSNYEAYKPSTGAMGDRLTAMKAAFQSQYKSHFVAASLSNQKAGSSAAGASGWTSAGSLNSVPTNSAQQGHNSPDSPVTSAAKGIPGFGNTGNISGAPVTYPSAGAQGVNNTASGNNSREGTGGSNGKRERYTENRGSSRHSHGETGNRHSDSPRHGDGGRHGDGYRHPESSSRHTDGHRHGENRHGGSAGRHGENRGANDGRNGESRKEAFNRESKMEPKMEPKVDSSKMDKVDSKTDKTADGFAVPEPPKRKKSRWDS
# UniProt Q8NBN3: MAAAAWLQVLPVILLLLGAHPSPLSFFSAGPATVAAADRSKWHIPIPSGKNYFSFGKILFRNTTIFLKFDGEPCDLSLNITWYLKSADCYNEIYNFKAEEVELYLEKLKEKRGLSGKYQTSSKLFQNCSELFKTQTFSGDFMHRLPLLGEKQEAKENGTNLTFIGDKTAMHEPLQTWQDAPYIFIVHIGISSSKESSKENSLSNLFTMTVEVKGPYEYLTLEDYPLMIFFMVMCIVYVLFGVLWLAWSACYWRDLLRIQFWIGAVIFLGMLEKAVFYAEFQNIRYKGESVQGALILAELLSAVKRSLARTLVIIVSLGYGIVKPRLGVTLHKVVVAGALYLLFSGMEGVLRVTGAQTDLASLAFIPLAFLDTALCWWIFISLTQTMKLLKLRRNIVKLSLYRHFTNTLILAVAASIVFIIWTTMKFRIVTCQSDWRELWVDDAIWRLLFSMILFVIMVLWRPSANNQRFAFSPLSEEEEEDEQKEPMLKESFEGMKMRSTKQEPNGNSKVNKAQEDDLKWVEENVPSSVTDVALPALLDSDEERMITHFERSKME
# ± gives the standard deviation of the averaged measurements. The entries are a selection whose mix differs from that of the whole data set.
# Compound: Nc1ncnc2c1ncn2[C@@H]1O[C@H](COP(=O)(O)OP(=O)(O)NP(=O)(O)O)[C@@H](O)[C@H]1O [adenylyl imidodiphosphate]
# Test: NP40-soluble protein abundance relative to vehicle (solubility fold change) (ratio); higher = more soluble protein in presence of AMP-PNP
# Summary of the method: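 Data come from three independent experiments in which Dounce-homogenised Jurkat crude lysate was treated at eight concentrations from 0.1 to 10 mM. Treatment ran 10 min at room temperature and then 3 min at 37 °C, after which 0.8% NP40 and benzonase were added for 60 min at 4 °C before ultracentrifugation. The supernatant underwent TMT labelling and LC-MS/MS, and vsn-normalised intensities were expressed as fold change against the detergent-processed vehicle in each replicate.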
Target,NP40-soluble protein abundance (concentration: 1mM),NP40-soluble protein abundance (concentration: 2mM),NP40-soluble protein abundance (concentration: 4mM),NP40-soluble protein abundance (concentration: 6mM),NP40-soluble protein abundance (concentration: 8mM),NP40-soluble protein abundance (concentration: 10mM)
ZC3H3 (UniProt Q8IXZ2),0.992 ± 0.056,1.02 ± 0.04,1 ± 0.023,1 ± 0.049,1.026 ± 0.0077,1.05 ± 0.046
UniProt Q86VP1-2|Q86VP1-4|B8ZZD4,0.977 ± 0.039,1.01 ± 0.026,0.963 ± 0.024,0.935 ± 0.038,0.925 ± 0.033,0.936 ± 0.031
RDH13 (UniProt Q8NBN7),1.03 ± 0.023,1.06 ± 0.049,1.03 ± 0.03,1.01 ± 0.011,0.987 ± 0.014,0.991 ± 0.025
GLRX5 (UniProt Q86SX6),1.02 ± 0.047,1.1 ± 0.11,1.004 ± 0.0095,0.996 ± 0.029,0.948 ± 0.019,0.953 ± 0.018
UniProt Q8IV53 and related entries,0.994 ± 0.015,0.997 ± 0.029,0.994 ± 0.033,0.9887 ± 0.0092,0.983 ± 0.015,0.995 ± 0.013
UniProt Q7Z7L7,1.01 ± 0.025,0.988 ± 0.03,1.038 ± 0.0026,0.994 ± 0.015,1.01 ± 0.034,0.9764 ± 0.0041
UniProt Q8N108 and related entries,1.02 ± 0.021,1.09 ± 0.073,1.037 ± 0.005,1.02 ± 0.011,0.997 ± 0.014,1.02 ± 0.026
CKAP2L (UniProt Q8IYA6),1 ± 0.011,1.01 ± 0.023,1.03 ± 0.02,1.02 ± 0.011,1.06 ± 0.024,1.11 ± 0.063
UniProt Q86U42 and related entries,0.976 ± 0.041,1 ± 0.028,0.981 ± 0.023,1.08 ± 0.03,1.06 ± 0.034,1.08 ± 0.025
NKAP (UniProt Q8N5F7),1.01 ± 0.013,1.08 ± 0.13,1.04 ± 0.058,1.08 ± 0.092,1.1 ± 0.074,1.12 ± 0.12
UniProt Q8N9N2-2|E9PKM6 and related entries,0.964 ± 0.02,0.978 ± 0.036,0.989 ± 0.046,1.03 ± 0.041,1.04 ± 0.025,1.05 ± 0.041
UniProt Q8N6T7 and related entries,0.899 ± 0.021,0.931 ± 0.017,0.949 ± 0.033,0.932 ± 0.012,0.948 ± 0.041,0.979 ± 0.023
UniProt Q8IXJ6 and related entries,1 ± 0.065,1.03 ± 0.037,1.01 ± 0.04,0.98 ± 0.043,0.97 ± 0.04,0.987 ± 0.057
UniProt Q8IVB4,0.987 ± 0.029,0.9945 ± 0.004,0.973 ± 0.034,0.99507 ± 0.00094,0.972 ± 0.05,0.9566 ± 0.0083
UniProt Q8N9N5 and related entries,0.976 ± 0.019,0.983 ± 0.026,0.997 ± 0.029,0.981 ± 0.022,0.95 ± 0.023,0.976 ± 0.017
SETD3 (UniProt Q86TU7),0.989 ± 0.057,0.974 ± 0.016,1.03 ± 0.03,1.05 ± 0.038,1.08 ± 0.034,1.05 ± 0.044
MICALL1 (UniProt Q8N3F8),1 ± 0.025,1.03 ± 0.089,0.999 ± 0.026,0.982 ± 0.019,0.962 ± 0.0098,0.983 ± 0.018
UniProt Q86VN1 and related entries,0.983 ± 0.02,0.935 ± 0.05,0.991 ± 0.037,1.01 ± 0.022,1.01 ± 0.023,0.992 ± 0.032
UniProt Q8N5Y8 and related entries,1.03 ± 0.03,1.01 ± 0.02,1.02 ± 0.025,0.991 ± 0.038,1.03 ± 0.0023,0.988 ± 0.013
ZBTB33 (UniProt Q86T24),0.997 ± 0.06,1 ± 0.028,0.995 ± 0.046,0.997 ± 0.017,0.962 ± 0.048,1.01 ± 0.036

Target,NP40-soluble protein abundance (concentration: 1mM),NP40-soluble protein abundance (concentration: 2mM),NP40-soluble protein abundance (concentration: 4mM),NP40-soluble protein abundance (concentration: 6mM),NP40-soluble protein abundance (concentration: 8mM),NP40-soluble protein abundance (concentration: 10mM)
TTC39C (UniProt Q8N584),0.978 ± 0.032,0.996 ± 0.068,0.981 ± 0.045,0.969 ± 0.032,0.96 ± 0.042,0.961 ± 0.07
GPAT4 (UniProt Q86UL3),0.985 ± 0.02,0.9824 ± 0.0083,0.9808 ± 0.0044,0.9746 ± 0.0076,0.99 ± 0.025,0.9487 ± 0.0021
UniProt Q8IWF6,1.03 ± 0.044,0.985 ± 0.07,1.009 ± 0.0059,0.99 ± 0.013,0.9971 ± 0.0016,0.996 ± 0.013
EXOC8 (UniProt Q8IYI6),1.07 ± 0.047,0.989 ± 0.026,0.964 ± 0.03,0.976 ± 0.032,0.947 ± 0.026,0.948 ± 0.035
UniProt Q8N4L2 and related entries,0.974 ± 0.042,0.992 ± 0.045,0.965 ± 0.038,1.03 ± 0.023,1.01 ± 0.07,0.987 ± 0.029
TMEM102 (UniProt Q8N9M5),1.03 ± 0.039,1.05 ± 0.037,1.06 ± 0.021,1.01 ± 0.051,1.03 ± 0.022,1.044 ± 0.0053
UniProt Q8N9V3 and related entries,0.984 ± 0.038,0.99 ± 0.0057,0.968 ± 0.048,0.971 ± 0.013,0.961 ± 0.044,0.971 ± 0.011
UniProt Q86V48 and related entries,1.04 ± 0.021,1.07 ± 0.041,1.09 ± 0.044,1.08 ± 0.025,1.08 ± 0.026,1.13 ± 0.013
PCGF5 (UniProt Q86SE9),1.01 ± 0.043,1.01 ± 0.029,1.01 ± 0.065,0.967 ± 0.054,0.974 ± 0.039,0.945 ± 0.036
UniProt Q8N8A2 and related entries,0.995 ± 0.023,0.942 ± 0.091,0.991 ± 0.052,0.92 ± 0.044,0.91 ± 0.013,0.883 ± 0.032
UniProt Q8N6R0 and related entries,0.998 ± 0.025,0.911 ± 0.066,0.991 ± 0.014,0.946 ± 0.019,0.969 ± 0.017,0.903 ± 0.023
UniProt Q86UE8-2|Q86UE8-3|J3QLK5,1.039 ± 0.0045,1.02 ± 0.021,1.02 ± 0.017,1.01 ± 0.015,0.994 ± 0.022,0.992 ± 0.02
DIS3L2 (UniProt Q8IYB7),0.982 ± 0.03,0.963 ± 0.051,0.978 ± 0.032,0.9473 ± 0.0089,0.937 ± 0.016,0.927 ± 0.032
UniProt Q86UK7 and related entries,1.03 ± 0.043,1.03 ± 0.022,1.07 ± 0.031,1.08 ± 0.038,1.1 ± 0.048,1.11 ± 0.07
MTDH (UniProt Q86UE4),1.13 ± 0.046,1.3 ± 0.16,1.32 ± 0.073,1.46 ± 0.2,1.47 ± 0.17,1.58 ± 0.17
UniProt Q8NBK3 and related entries,1.018 ± 0.0033,1.001 ± 0.0057,0.991 ± 0.045,1.02 ± 0.041,1.01 ± 0.046,1 ± 0.013
DDX60 (UniProt Q8IY21),1.06 ± 0.05,1.11 ± 0.058,1.17 ± 0.029,1.19 ± 0.062,1.26 ± 0.089,1.3 ± 0.066
UniProt Q8NBJ4 and related entries,1.02 ± 0.017,1.01 ± 0.026,0.98 ± 0.053,0.9858 ± 0.0046,0.977 ± 0.011,0.975 ± 0.035
UniProt Q8N8K9-2|Q8N8K9-3,0.975 ± 0.01,1.19 ± 0.28,0.9704 ± 0.0049,0.987 ± 0.049,1 ± 0.05,0.989 ± 0.088
DTWD2 (UniProt Q8NBA8),1.01 ± 0.028,0.999 ± 0.04,0.968 ± 0.014,0.959 ± 0.038,0.943 ± 0.057,0.951 ± 0.044

# A stretch taken from the entries so far:
Target,NP40-soluble protein abundance (concentration: 1mM),NP40-soluble protein abundance (concentration: 2mM),NP40-soluble protein abundance (concentration: 4mM),NP40-soluble protein abundance (concentration: 6mM),NP40-soluble protein abundance (concentration: 8mM),NP40-soluble protein abundance (concentration: 10mM)
UniProt Q8N4L2 and related entries,0.974 ± 0.042,0.992 ± 0.045,0.965 ± 0.038,1.03 ± 0.023,1.01 ± 0.07,0.987 ± 0.029
TMEM102 (UniProt Q8N9M5),1.03 ± 0.039,1.05 ± 0.037,1.06 ± 0.021,1.01 ± 0.051,1.03 ± 0.022,1.044 ± 0.0053
UniProt Q8N9V3 and related entries,0.984 ± 0.038,0.99 ± 0.0057,0.968 ± 0.048,0.971 ± 0.013,0.961 ± 0.044,0.971 ± 0.011
UniProt Q86V48 and related entries,1.04 ± 0.021,1.07 ± 0.041,1.09 ± 0.044,1.08 ± 0.025,1.08 ± 0.026,1.13 ± 0.013
PCGF5 (UniProt Q86SE9),1.01 ± 0.043,1.01 ± 0.029,1.01 ± 0.065,0.967 ± 0.054,0.974 ± 0.039,0.945 ± 0.036
UniProt Q8N8A2 and related entries,0.995 ± 0.023,0.942 ± 0.091,0.991 ± 0.052,0.92 ± 0.044,0.91 ± 0.013,0.883 ± 0.032
UniProt Q8N6R0 and related entries,0.998 ± 0.025,0.911 ± 0.066,0.991 ± 0.014,0.946 ± 0.019,0.969 ± 0.017,0.903 ± 0.023
UniProt Q86UE8-2|Q86UE8-3|J3QLK5,1.039 ± 0.0045,1.02 ± 0.021,1.02 ± 0.017,1.01 ± 0.015,0.994 ± 0.022,0.992 ± 0.02
DIS3L2 (UniProt Q8IYB7),0.982 ± 0.03,0.963 ± 0.051,0.978 ± 0.032,0.9473 ± 0.0089,0.937 ± 0.016,0.927 ± 0.032
UniProt Q86UK7 and related entries,1.03 ± 0.043,1.03 ± 0.022,1.07 ± 0.031,1.08 ± 0.038,1.1 ± 0.048,1.11 ± 0.07
MTDH (UniProt Q86UE4),1.13 ± 0.046,1.3 ± 0.16,1.32 ± 0.073,1.46 ± 0.2,1.47 ± 0.17,1.58 ± 0.17
UniProt Q8NBK3 and related entries,1.018 ± 0.0033,1.001 ± 0.0057,0.991 ± 0.045,1.02 ± 0.041,1.01 ± 0.046,1 ± 0.013
DDX60 (UniProt Q8IY21),1.06 ± 0.05,1.11 ± 0.058,1.17 ± 0.029,1.19 ± 0.062,1.26 ± 0.089,1.3 ± 0.066

# Next records:

Target,NP40-soluble protein abundance (concentration: 1mM),NP40-soluble protein abundance (concentration: 2mM),NP40-soluble protein abundance (concentration: 4mM),NP40-soluble protein abundance (concentration: 6mM),NP40-soluble protein abundance (concentration: 8mM),NP40-soluble protein abundance (concentration: 10mM)
PELP1 (UniProt Q8IZL8),1.01 ± 0.028,1.024 ± 0.0074,1.01 ± 0.026,1 ± 0.03,1.032 ± 0.0039,1.03 ± 0.015
UniProt Q8IUH3-3,1 ± 0.017,1 ± 0.066,1.02 ± 0.04,1.03 ± 0.034,1 ± 0.022,1.03 ± 0.037
UniProt Q86WV1 and related entries,0.999 ± 0.048,0.978 ± 0.019,0.997 ± 0.072,0.962 ± 0.072,0.96 ± 0.068,1.02 ± 0.11
UniProt Q8N2K0 and related entries,1.05 ± 0.022,1.01 ± 0.12,1.07 ± 0.019,1.01 ± 0.018,1.07 ± 0.026,1.04 ± 0.05
SPATA5 (UniProt Q8NB90),1.04 ± 0.042,1.06 ± 0.13,1.12 ± 0.085,1.16 ± 0.095,1.16 ± 0.096,1.17 ± 0.13
ASCC3 (UniProt Q8N3C0),1.06 ± 0.011,1.07 ± 0.029,1.1 ± 0.013,1.1 ± 0.095,1.15 ± 0.095,1.2 ± 0.082
UniProt Q7Z7A4 and related entries,0.99 ± 0.033,0.973 ± 0.029,1.02 ± 0.073,1.14 ± 0.074,1.14 ± 0.064,1.15 ± 0.15
UniProt Q8N4V1 and related entries,0.976 ± 0.018,0.988 ± 0.042,0.9576 ± 0.0062,1.02 ± 0.015,1.02 ± 0.024,0.9843 ± 0.0083
UniProt Q86XP3 and related entries,1.02 ± 0.011,1.03 ± 0.018,1.06 ± 0.017,1.04 ± 0.023,1.071 ± 0.01,1.1 ± 0.027
UniProt Q86T03-2,1 ± 0.033,1.01 ± 0.019,0.98 ± 0.045,0.962 ± 0.023,0.984 ± 0.018,1.01 ± 0.027
PARG (UniProt Q86W56),1.06 ± 0.018,1.09 ± 0.056,1.05 ± 0.03,1.02 ± 0.031,0.999 ± 0.029,1.02 ± 0.026
UniProt Q8NBL1,1.01 ± 0.016,1.02 ± 0.06,1 ± 0.048,1.02 ± 0.046,1.02 ± 0.016,1.03 ± 0.037
SUPV3L1 (UniProt Q8IYB8),1.02 ± 0.012,0.932 ± 0.076,1.02 ± 0.018,0.973 ± 0.013,1.01 ± 0.036,0.95 ± 0.038
RYBP (UniProt Q8N488),0.996 ± 0.025,1.07 ± 0.079,1.01 ± 0.041,1.04 ± 0.032,1.01 ± 0.021,1.03 ± 0.037
YRDC (UniProt Q86U90),0.9988 ± 0.0045,0.981 ± 0.018,1 ± 0.028,1.09 ± 0.075,1.08 ± 0.079,1.09 ± 0.072
HSCB (UniProt Q8IWL3),0.957 ± 0.017,0.9776 ± 0.0059,0.9805 ± 0.0047,0.969 ± 0.033,0.974 ± 0.019,0.957 ± 0.025
UniProt Q8IUQ4 and related entries,0.984 ± 0.017,1.01 ± 0.0068,0.9931 ± 0.0098,0.996 ± 0.015,0.984 ± 0.01,0.9878 ± 0.0038
RHOT2 (UniProt Q8IXI1),1.02 ± 0.021,1 ± 0.073,1.02 ± 0.03,0.9999 ± 0.006,1.004 ± 0.01,1.02 ± 0.034
LIX1L (UniProt Q8IVB5),0.987 ± 0.016,1.01 ± 0.052,0.993 ± 0.038,0.99 ± 0.064,0.994 ± 0.025,0.98 ± 0.042
UniProt Q8NBN3 and related entries,0.979 ± 0.039,1.02 ± 0.096,0.978 ± 0.057,0.982 ± 0.058,0.99 ± 0.045,1.01 ± 0.052
